From PubChem BioAssay
This is one part of the list. The main result of the screen is listed elsewhere. These columns were measured beside it and carry no call. For some of these results: The list favours compounds with an active or inconclusive main result.

Assays:
PubChem AID 1586 = conditions: yeast two-hybrid polyglutamine protein interaction, reporter readout; measured here: averaged growth delta OD
[1] = enhancers of SMN2 over SMN1 splicing, cell-based, SMN2/SMN1 luciferase reporters (AID 1598); conditions: SMN2 vs SMN1 luciferase splicing reporter cells, at 10 µM; SMN1 luciferase ratio: measured here: SMN1 luciferase reporter average; SMN2 luciferase ratio: measured here: SMN2 luciferase reporter average, stronger effect = higher value
[2] = protection against mutant huntingtin cytotoxicity, PC12 cells, LDH release (AID 1610); conditions: PC12 mutant huntingtin toxicity, final LDH at 4 uM, stronger effect = lower value

Structure (SMILES)	signal change (36 h minus 0 h) (PubChem AID 1586)	SMN1 luciferase ratio [1]	SMN2 luciferase ratio [1]	normalised LDH release [2]
O=C1c2ccccc2C(=O)C1c1ccccc1	0.0583	0.99	1.01	0.651
Cn1c(=O)c2c(ncn2CCO)n(C)c1=O	0.142	0.95	0.89	0.98
CCCn1c(=O)c2[nH]c(C3CCCC3)nc2n(CCC)c1=O	0.193	0.86	0.9	0.968
Cc1onc(-c2c(Cl)cccc2Cl)c1C(=O)N[C@@H]1C(=O)N2[C@@H]1SC(C)(C)[C@@H]2C(=O)O	0.041	0.89	0.91	1.02
CC(CN(C)C)CN1c2ccccc2CCc2ccccc21 (stereo unspecified)	0.199	0.77	0.84	0.66
O=C(O)c1cc(=O)c2ccccc2o1	0.133	0.85	0.79	0.793
O=C(N[C@H](CO)[C@H](O)c1ccc([N+](=O)[O-])cc1)C(Cl)Cl	0.0961	0.9	0.73	1.22
Cn1cnc2c1c(=O)[nH]c(=O)n2C	0.00285	0.89	0.91	0.741
O=C(O)c1c2ccccc2cc2ccccc12	0.143	0.9	0.93	0.637
CC(=O)OCC(=O)[C@@]1(O)CCC2C3CCC4=CC(=O)CC[C@]4(C)C3C(=O)C[C@@]21C (stereo partly specified)	0.113	0.95	0.83	1.13
O=C(CCCN1CCC(O)(c2ccc(Cl)cc2)CC1)c1ccc(F)cc1	0.11	0.88	0.88	0.839
CC(=O)N[C@@H](Cc1c[nH]c2ccccc12)C(=O)O	0.186	0.98	0.89	0.748
COc1ccc(C(=O)c2ccccc2)c(O)c1	0.0386	0.92	0.94	1.01
CC(=O)O[C@H]1C(=O)[C@@]2(C)C([C@H](OC(=O)c3ccccc3)[C@]3(O)C[C@H](OC(=O)[C@H](O)[C@@H](NC(=O)c4ccccc4)c4ccccc4)C(C)=C1C3(C)C)[C@]1(OC(C)=O)CO[C@@H]1C[C@@H]2O (stereo partly specified)	0.0803	1.32	1.34	1.31
CN=C(N)NCCCC(N)C(=O)O (stereo unspecified)	0.594	0.87	1.01	0.893
CO[C@H]1/C=C/O[C@@]2(C)Oc3c(C)c(O)c4c(O)c(c(C=NN5CCN(C)CC5)c(O)c4c3C2=O)NC(=O)/C(C)=C\C=C\C(C)[C@H](O)[C@@H](C)[C@@H](O)[C@@H](C)[C@@H](OC(C)=O)[C@@H]1C (stereo partly specified)	0.187	0.91	0.85	0.638
NCCCCN	0.0385	0.87	0.88	0.865

Structure (SMILES)	signal change (36 h minus 0 h) (PubChem AID 1586)	SMN1 luciferase ratio [1]	SMN2 luciferase ratio [1]	normalised LDH release [2]
C=C1c2c(Cl)ccc(O)c2C(O)=C2C(=O)[C@]3(O)C(O)=C(C(N)=O)C(=O)[C@@H](N(C)C)[C@@H]3[C@@H](O)[C@H]12	0.14	0.89	0.91	0.629
O=C(Cc1cccs1)NC1C(=O)N2C(C(=O)[O-])=C(C[n+]3ccccc3)CSC12 (stereo unspecified)	0.198	0.91	0.85	1
Cn1c(=O)c2[nH]c(C3CCCC3)nc2n(C)c1=O	0.141	0.93	0.94	1.08
NCCCS(=O)(=O)O	0.114	0.93	0.87	0.979
CC(C)[N+]1(C)C2CC[C@@H]1CC(OC(=O)C(CO)c1ccccc1)C2 (stereo partly specified)	0.16	0.91	0.93	0.668
Cc1ccnc(NS(=O)(=O)c2ccc(N)cc2)n1	0.191	0.9	0.87	1.03
CC(C)[C@@H]1CC[C@@H](C)C[C@H]1O	0.0413	0.93	1.06	0.688
OCC(O)CN1CCN(c2ccccc2)CC1 (stereo unspecified)	0.178	0.89	0.92	0.963
O=C(/C=C/C=C/c1ccc2c(c1)OCO2)N1CCCCC1	0.0359	1.21	1.17	0.974
NC(N)=N/N=C\c1c(Cl)cccc1Cl	0.152	0.8	0.87	1.17
CCCC(=O)Nc1ccc(OCC(O)CNC(C)C)c(C(C)=O)c1 (stereo unspecified)	0.214	1.53	1.61	1.53
Nc1nccs1	0.167	0.79	0.94	1.21
Cc1cc(CC(=O)O)n(C)c1C(=O)c1ccc(Cl)cc1	0.194	1.01	0.88	1.42
CC(C)NCC(O)c1cc(O)cc(O)c1 (stereo unspecified)	0.154	0.91	0.94	0.936
CC/C(=C(\c1ccccc1)c1ccc(OCCN(C)C)cc1)c1ccccc1	0.226	0.87	0.93	1.11
Cc1ccc(-c2cc(C(F)(F)F)nn2-c2ccc(S(N)(=O)=O)cc2)cc1	0.133	0.95	0.86	1.12
CCC(=O)O[C@H]1[C@H](O[C@@H]2[C@@H](C)[C@H](O[C@H]3C[C@@](C)(OC)[C@@H](O)[C@H](C)O3)[C@@H](C)C(=O)O[C@H](CC)[C@@](C)(O)[C@H](O)[C@@H](C)C(=O)[C@H](C)C[C@@]2(C)O)O[C@H](C)C[C@@H]1N(C)C	0.13	0.81	0.98	0.959

Whole records as entered above:
`C=C1c2c(Cl)ccc(O)c2C(O)=C2C(=O)[C@]3(O)C(O)=C(C(N)=O)C(=O)[C@@H](N(C)C)[C@@H]3[C@@H](O)[C@H]12` is listed as signal change (36 h minus 0 h) (PubChem AID 1586): 0.14; SMN1 luciferase ratio [1]: 0.89; SMN2 luciferase ratio [1]: 0.91; normalised LDH release [2]: 0.629
`O=C(O)c1c2ccccc2cc2ccccc12` is listed as signal change (36 h minus 0 h) (PubChem AID 1586): 0.143; SMN1 luciferase ratio [1]: 0.9; SMN2 luciferase ratio [1]: 0.93; normalised LDH release [2]: 0.637
